# Values from PubChem BioAssay AID504808 (Drosophila RNAi Screening Center, 2011).
# Purpose: 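Genes whose loss lifts activity of an E2F-responsive reporter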 (primary screen)
# Cell system: Drosophila S2 cells
# Reagents: long dsRNA against Drosophila genes
# Detection: 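Firefly luciferase driven by E2F sites, normalised to Renilla luciferase on the same minimal promoter, measured by plate reader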
# Reading the numbers: E2F firefly: higher = more E2F reporter activity; Renilla normaliser: higher = more normaliser reporter signal
# Call rule: 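Called active if the normalised E2F reporter went up by over 50%; the cutoff is arbitrary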
# The deposit covers about 21,000 reagents; below is a random part of those that have a named target and a result. Of all reagents, 18 (0.084%) were called active. 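Raw counts without plate normalisation, one of two replicates; the ratio scores behind the calls were not deposited.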 A plus sign joins genes that one reagent is predicted to hit. No sequences are given here. The record does not give: the amount of reagent, the time to read-out.
Gene,amplicon,"E2F firefly, rep 1","Renilla normaliser, rep 1",Call
CG14464,DRSC07760,1.10e5,4383,inactive
CG14856,DRSC14980,1.08e5,5808,inactive
Lcp2,DRSC07456,1.43e5,5866,inactive
pont,DRSC17029,1.77e5,7124,inactive
Slbp,DRSC16863,1.35e5,6999,inactive
CG17026,DRSC10237,1.58e5,7189,inactive
qkr58E-2,DRSC04710,92794,4573,inactive
PPYR1,DRSC19612,2.04e5,6841,inactive
CG9016,DRSC03127,1.42e5,5194,inactive
sca,DRSC07677,95064,4167,inactive
Cpr97Ea,DRSC15974,1.24e5,6186,inactive
Mal-A3,DRSC07462,1.39e5,4876,inactive
CG13946,DRSC00364,1.65e5,5267,inactive
S6kII,DRSC20645,1.61e5,5631,inactive
CG10395,DRSC04840,79277,3769,inactive
Reg-5,DRSC04647,93448,3663,inactive
CG6675,DRSC03735,1.09e5,4801,inactive
ana,DRSC07579,3455,149,inactive
CG12643,DRSC17849,1.30e5,6278,inactive
gas,DRSC04521,98783,4311,inactive
CG5623,DRSC15848,1.27e5,6304,inactive
CG11170,DRSC04090,71799,3610,inactive
CG31517,DRSC13010,80866,2448,inactive
Pp2B-14D,DRSC20270,2.81e5,7927,inactive
Dera,DRSC07207,2653,208,inactive
CG32606 (retired record),DRSC19001,70733,2251,inactive
CG32606 (retired record),DRSC19371,2.29e5,6673,inactive
CG32606 (retired record),DRSC19372,1.95e5,13028,inactive
CG32606 (retired record),DRSC19373,2.24e5,8183,inactive
qin,DRSC14782,1.49e5,7799,inactive
Enoph,DRSC12201,1.38e5,5379,inactive
CG14126 (retired record),DRSC10130,1.10e5,5183,inactive
Snrk,DRSC07192,171,41,inactive
vnc + CG42455,DRSC09867,77183,3610,inactive

Individual results from the list:
Entry of Snrk [DRSC07192] in “E2F firefly, rep 1”: 171
CG32606 (retired record) [DRSC19371], Renilla normaliser, rep 1: 6673
For “Call”, CG5623 [DRSC15848] shows inactive
